Measured values as given in the supplement of paper PMC3334620.
Over roughly 33,000 sequences, “E-score (-0.5 to 0.5)” has its median near -0.015; the highest 2% begin near 0.3. This is one part of the list.

Each sequence was assayed against T1, Abf1 (UniProt P14164) (assay: PBM E-score (8-mer binding enrichment) (E-score (-0.5 to 0.5)); higher = stronger / more preferred TF binding). Conditions: protein concentration: 200 nM; construct: GST-full length.
T1 sequence: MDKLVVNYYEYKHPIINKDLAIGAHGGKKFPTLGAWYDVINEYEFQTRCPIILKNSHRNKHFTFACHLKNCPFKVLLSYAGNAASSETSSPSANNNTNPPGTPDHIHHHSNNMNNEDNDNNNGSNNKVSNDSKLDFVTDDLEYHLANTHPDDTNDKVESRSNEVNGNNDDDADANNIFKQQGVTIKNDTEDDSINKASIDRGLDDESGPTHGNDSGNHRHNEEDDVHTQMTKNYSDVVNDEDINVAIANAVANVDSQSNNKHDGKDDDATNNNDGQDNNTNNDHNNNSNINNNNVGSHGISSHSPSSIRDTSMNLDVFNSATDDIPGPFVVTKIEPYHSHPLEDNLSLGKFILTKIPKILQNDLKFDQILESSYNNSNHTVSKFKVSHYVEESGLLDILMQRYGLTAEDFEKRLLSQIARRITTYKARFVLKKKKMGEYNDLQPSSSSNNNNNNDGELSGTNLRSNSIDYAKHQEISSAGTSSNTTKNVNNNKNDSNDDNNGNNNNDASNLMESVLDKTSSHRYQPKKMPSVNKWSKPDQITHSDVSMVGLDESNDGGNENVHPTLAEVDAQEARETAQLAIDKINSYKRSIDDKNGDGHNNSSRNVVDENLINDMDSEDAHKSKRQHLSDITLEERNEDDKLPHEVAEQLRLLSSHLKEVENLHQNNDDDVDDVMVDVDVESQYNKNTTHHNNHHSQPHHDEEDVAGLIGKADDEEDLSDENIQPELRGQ
Procedure, shortened: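 Yeast transcription factors carrying a GST tag, as full-length proteins or DNA-binding domains, were produced by PURExpress in vitro transcription/translation. About 100-200 nM protein was applied to universal all-10-mer Agilent arrays, double-stranded by primer extension on fresh or once-stripped slides. Bound protein was detected with fluorescent anti-GST, and scans were normalised with masliner. The Universal PBM Analysis Suite gave each ungapped eight-base word, pooled with its reverse complement, an E-score, a modified Wilcoxon-Mann-Whitney statistic.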

Point of comparison: GACCTCAC, “PBM E-score” value 0.096. Against it:
- CTCCCGAC — lower, -0.0582
- CGGTTCAG — lower, -0.231
- GGGTGAGA — lower, -0.136
- CAGAAATG — lower, -0.0221
- ACTAAAAA — higher, 0.129
- GCCTTTTA — lower, 0.0428
- GATCTTCA — lower, 0.0137
- AATTAAGA — lower, 0.0488
- GAGACCAA — lower, -0.0669
- CAATGACA — higher, 0.214
- CTACAGCA — lower, -0.17
- ACTAGTAC — lower, 0.0885
- CTAGACAG — lower, -0.158
- CGTTCTAG — lower, 0.0852
- ACTCCCAA — lower, 0.0267
- CTCGAAAG — lower, -0.00955
- GCATTCAA — lower, 0.0305
- GCTGTTGA — lower, 0.0654
- CCCTAATA — lower, -0.0658
- CGATCACA — higher, 0.161
- GAGACATA — lower, 0.0808
- GTGTGCAA — lower, -0.0108
- ACGATGAG — higher, 0.185
- CGGACGCA — lower, -0.056
- ATATTACG — higher, 0.253
- CCACCCCA — lower, -0.124
- AATGGTAA — higher, 0.111
- CAAACTGA — lower, -0.108
- CGCCTGAG — lower, -0.0541
- GAAATAAA — lower, 0.083
- ACACACCT — lower, -0.0974
- CGACCGCG — higher, 0.111
- CATAAGTA — higher, 0.101
- CATTAGAA — lower, -0.048
- ACTTACTC — lower, -0.154
- ACTATGAT — lower, -0.0345
- ACATTAGC — lower, 0.0113
- GCACGGCC — lower, 0.0897
- ATGGGACA — lower, -0.0986
- AATGATCG — higher, 0.232
- ATTTATAG — lower, -0.016
- ACCACGAG — higher, 0.126
- AGCTTGTC — lower, -0.0838
- CGCCTCGC — lower, -0.0682
- CGCCCGTA — higher, 0.109
- GAGGCCAA — lower, -0.163
- AATTGAGA — lower, -0.0624
- CCGATTAC — lower, -0.0467
- CAGGACAG — lower, 0.0588
- ATCAAATC — higher, 0.118
- AAGAAACA — lower, 0.00526
- TACCACTA — lower, 0.0408
- GGGCACCC — lower, -0.139
- ACCAGTAT — lower, 0.0633
- CGTTTCAA — higher, 0.164
- ATTGGATA — lower, 0.0891
- TGCTAACA — lower, 0.00773
- AATATCGT — higher, 0.398
- GTAGACCA — lower, -0.0597
- AAATTTCA — lower, -0.0339
- ACTGGGTA — lower, -0.0366
- ATCTTATG — lower, 0.0695
- ACCTGGCA — lower, -0.0183
- CGGGAGGA — lower, -0.157
- AGGGCAGG — lower, -0.231
- AGAATACA — lower, 0.00391
- GATGGCGA — lower, 0.0515
- GACGGTAA — lower, 0.0732
- AGACGTCG — lower, 0.0203
- CACCTATA — lower, -0.0609
- ATCGGCCG — lower, -0.0978
- ACAAAGGA — lower, -0.0678
- CTCCAATA — lower, -0.0156
- CAATTAGG — lower, -0.12
- ACATTCGT — higher, 0.163
- AGTATCGG — lower, -0.0316
- ATGATTAA — higher, 0.296
- TCACACGA — higher, 0.297
- ACAGACTG — lower, -0.221
- GAAGCGAA — lower, 0.0286
- TACACTGA — lower, 0.0897
- GCCCTGAC — lower, -0.0565
- CCCTCAAA — lower, -0.0801
- CACTGAGC — lower, -0.14
- GTGAGAAC — lower, -0.0155
- AGCAACCC — lower, -0.17
- AGGGATCA — lower, 0.0623
- ATTAATTC — higher, 0.194
- GTAAAGAC — lower, 0.0331
- AACGGGGT — lower, 0.051
- AAAGGACA — lower, -0.0266
- AGAAAACA — higher, 0.109
- CGGAAACC — lower, -0.219
- ACAAATGC — higher, 0.101
- GTCATGGA — lower, -0.0337
- TAGCCGCA — lower, -0.163
- AGGCCTAC — lower, -0.00197
- ATATCCTG — lower, 0.0704
- CGGTTAAC — lower, -0.269
- AACAGATT — lower, 0.0405
- CGGGTTTC — lower, -0.129
- AAGCCGTG — higher, 0.147
- CGGTATAA — higher, 0.208
- CATTGTGG — lower, -0.167
- ATTCATTA — higher, 0.118
- TCCCAGCA — lower, -0.0223
- CATCGTTA — lower, 0.00302
- AGACTGGC — lower, -0.297
- CTGTTGCA — lower, 0.0169
- GCTATCTA — lower, -0.0358
- ACCTCTTC — lower, -0.12
- AAAACGCC — lower, -0.0152
- GAGGGCCA — lower, -0.0366
- CGTTAAGC — higher, 0.103
- GGCTTACC — lower, -0.23
- CTTCACTC — lower, -0.039
- AAAACACT — lower, 0.0505
- AGAACGTC — lower, 0.071
- GATTCTCA — higher, 0.0984
- CCAAGTAC — lower, -0.0705
- AACGAGAT — higher, 0.141
- AGGCCCTC — lower, -0.202
- AGGCATCG — lower, -0.0212
- AGGGACGC — lower, -0.22
- ACCTGCGC — lower, -0.0853
- AAGCTGTC — lower, 0.00202
- GAGTCTGC — lower, -0.327
- GAACGTAA — higher, 0.16
- CCCTAACA — lower, 0.0314
- GTACTGGA — lower, 0.0937
- ACGTTGGA — higher, 0.142
- AGTCCCGC — lower, -0.141
- CAGCCTTC — lower, -0.199
- ATGCAGGG — lower, -0.188
- AAAGCTAA — lower, -0.0278
- GGACCTGA — lower, -0.15
- AGGTCCGC — lower, -0.17
- CGATCGCA — lower, 0.0712
- ACAAATAA — higher, 0.177
- CGCTGGGC — lower, -0.14
- TACGCACA — lower, 0.0228
- CAGTCGGG — lower, 0.0146
- CCACTCGC — lower, -0.198
- ACGTCCTA — higher, 0.118
- GAACGCAC — lower, -0.0202
- CAAAGACA — lower, 0.0294
- ATCCGTTA — lower, 0.0368
- AGTAATCA — lower, -0.0447
- AGGATGCA — lower, -0.0536
- CGACCGAC — lower, -0.0557
- TGGGCGAA — lower, 0.024
- GAACCGGA — lower, -0.121
- TATTCGGA — lower, 0.0765
- TCTCAGCA — lower, -0.182
- ATATCCGG — lower, 0.0227
- CCTGGTTA — lower, -0.0879
- ACAAATTG — higher, 0.151
- TGGCCACA — lower, -0.0329
- GTACGCGA — higher, 0.0966
- GCTATCAC — higher, 0.211
- ACGGCATA — higher, 0.207
- ACCTTTTG — lower, -0.00807
- CTCCAGTC — lower, -0.222
- CGGAAACG — lower, -0.0387
- AGTGAGGG — lower, -0.196
- TCGAGCCA — lower, -0.154
- ATCCACTC — lower, 0.0417
- ATTAGCGC — lower, 0.0369
- ACCCGCCT — lower, -0.188
- AACAGTTG — lower, -0.105
- AAACGTAG — lower, -0.0717
